Percent effect of library compounds

The values are deposited in ChEMBL (CHEMBL3988442, “University of Dundee, Small-Polar-MMV Screening Library” (2021)).

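Whole-parasite assay of Trypanosoma brucei over 72 hours; the read-out is not stated. Compounds at 10 µM. Direction is inferred from retests: higher values go with stronger inhibition. Values scatter widely below zero; nearly all retest evidence comes from the higher of the two concentrations used. Of about 2,700 compounds tested this way, about 14 (0.51%) reached 50% or more in at least one test.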

Values are the deposited “Percent Effect”, in %.
The record does not define 0% and 100%; most values in the screen are far below 50% and negative numbers occur (in some assays of this library far below -100).
Compounds were drawn at random from those tested, without regard to their results.

| # | compound | effect |
|---|---|---|
| 1 | `Cn1c(CN2CCCC(c3noc(C4CC4)n3)C2)cc(=O)n(C)c1=O` (stereo not drawn) | -23.05% |
| 2 | `Cc1csc(C2CCCCN2C(=O)c2cc(C)n(C)n2)n1` (stereo not drawn) | -22.55% |
| 3 | `CC(O)CN1CCC(CNCc2ccccc2F)CC1` (stereo not drawn) | -41.14% |
| 4 | `CC(C)c1nnc(CNC2CCCN(Cc3noc(C4CC4)n3)C2)o1` (stereo not drawn) | -45.38% |
| 5 | `O=C(CC1C=CCC1)Nc1ncn(CC(=O)N2CCCCCC2)n1` (stereo not drawn) | -67.13% |
| 6 | `Cc1cnn(CCNCc2ccc(OCc3cccnc3)cc2)c1` | 24.61% |
| 7 | `CC(=O)Nc1nc(C(=O)N2CCCCC2Cn2cc(C)cn2)cs1` (stereo not drawn) | -32.54% |
| 8 | `Cc1ccc(C(C)N(C)Cc2nc3c(cnn3C)c(=O)[nH]2)s1` (stereo not drawn) | -48.1% |
| 9 | `CC(C)(C)n1ncc2c1CCCC2NCc1cccc2c1OCCO2` (stereo not drawn) | 0.9444% |
| 10 | `CNC(=O)C1CCN(C(=O)NCCc2ccc(Cl)s2)CC1` | -11.29% |
| 11 | `O=C(Nc1ccc(CCN2CCOCC2)cc1)C1CCCC1` | -78.15% |
| 12 | `CCOc1ncccc1C(=O)N1CCCC1Cn1nc(C)cc1C` (stereo not drawn) | -93.17% |
| 13 | `Cc1cnn(CC2CCCCN2C(=O)Cc2c(C)nn(C)c2C)c1` (stereo not drawn) | -26.17% |
| 14 | `CCC(O)CN1CCN(C(=O)Cc2ccc(OC)cc2OC)CC1` (stereo not drawn) | -60.19% |
| 15 | `CCc1n[nH]c(C2CN(C(=O)c3cnc(C)nc3CC)CCO2)n1` (stereo not drawn) | -48.88% |
| 16 | `CCc1nc(C2CCCN(C(=O)c3ccc(O)nc3)C2)no1` (stereo not drawn) | -26.57% |
| 17 | `CCn1cc(NC(=O)NCCN2CCc3ccccc3C2)cn1` | -10.28% |
| 18 | `c1ccc(-c2nnc3n2CCN(Cc2ccc4c(c2)OCCO4)C3)cc1` | -53.43% |
| 19 | `O=S(=O)(CCCN1CCCCC1Cn1cncn1)c1ccccc1` (stereo not drawn) | -66.02% |
| 20 | `COCCN1CCC(NCc2ccc(Cl)cc2)C1` (stereo not drawn) | -34.56% |
| 21 | `Cc1cnn(CC2CCCN2Cc2noc(C3CC3)n2)c1` (stereo not drawn) | -12.73% |
| 22 | `Cc1noc(C)c1CNC(=O)N(C)C1CCN(c2ccccc2)C1=O` (stereo not drawn) | -19.88% |
| 23 | `CCOCC(O)CN1CCN(C(=O)Cc2cccc(Cl)c2)CC1` (stereo not drawn) | -74.46% |
| 24 | `CCOc1ncccc1NC(=O)N1CCCC(CNC(N)=O)C1` (stereo not drawn) | -41.9% |
| 25 | `Cc1csc(N2CCCN(C(=O)c3occc3C)CC2)n1` | -16.4% |
| 26 | `CC(NC(=O)N1CCC(c2ccccc2)CC1)c1nncn1C` (stereo not drawn) | -10.2% |
| 27 | `COC1CCN(C(=O)Nc2cc(C(F)(F)F)c[nH]c2=O)CC1` | -32.56% |
| 28 | `N#Cc1ccsc1NC(=O)CN1CCOC(Cn2cccn2)C1` (stereo not drawn) | -71.49% |
| 29 | `Cc1nc(CN2CCN(C(=O)c3sccc3C)CC2)cs1` | -52.44% |
| 30 | `O=C(NCCC(=O)N1CCCc2ccccc21)c1ccc(F)cc1F` | -47.62% |
| 31 | `O=C(NCCNc1ccc(C(F)(F)F)cn1)c1cc(Cl)ccc1F` | 35.81% |
| 32 | `Cc1ccc(-c2nc(CN(Cc3cccs3)CC3CCCO3)no2)cc1` (stereo not drawn) | -10.74% |
| 33 | `CNC(=O)c1cc(C)n(-c2cccc(OC)c2)c1C` | -15.75% |
| 34 | `Cc1nnc(NC(=O)NC(C)Cn2cccn2)s1` (stereo not drawn) | -52.64% |
| 35 | `CCCOc1ncccc1CNc1nnc(C)c(C)c1C#N` | -53.98% |
| 36 | `CCc1nc(C2CCCN2C(=O)c2ccc3c(c2)[nH]c(=O)n3C)no1` (stereo not drawn) | -47.81% |
| 37 | `COc1ccc(F)cc1CN1CCCC1Cn1nc(C)nc1C` (stereo not drawn) | -21.11% |
| 38 | `COc1cc(C(=O)Nc2nc(C)no2)cc(OC)c1Br` | -27.84% |
| 39 | `Cc1noc(C2CCN(C(=O)c3ccc(C(F)(F)F)nc3)CC2)n1` | -29.66% |
| 40 | `Cc1nc(C)n(CC2CCCN(Cc3cn4c(C)cccc4n3)C2)n1` (stereo not drawn) | -5.7% |
| 41 | `Cc1nc(C)c(CN2CCC(N(C)Cc3nnc(C4CC4)o3)C2)s1` (stereo not drawn) | -21.96% |
| 42 | `Cc1nc(C(=O)N2CCCC2c2noc(C)n2)c[nH]1` (stereo not drawn) | -16.23% |
| 43 | `COC(=O)C1CCN(c2cc(C)nc(-c3ccncc3)n2)CC1` | -36.76% |
| 44 | `CCn1cc(NC(=O)NCC(C)(C)N2CCc3ccccc3C2)cn1` | -15.07% |

The first 2 entries again:

Result for Cn1c(CN2CCCC(c3noc(C4CC4)n3)C2)cc(=O)n(C)c1=O (stereo not drawn) was -23.05%.
Result for Cc1csc(C2CCCCN2C(=O)c2cc(C)n(C)n2)n1 (stereo not drawn) was -22.55%.